Out of some 59,000 compounds screened, about 6,500 (11%) were called active. Inconclusive means that the source gave no clear call. Such entries were picked first, then a sample of the others. No stated cut-off is given here; in the data, active means max dye-equivalent concentration above about 10 nM; inconclusive means mostly about 1.1 nM to 9.6 nM; inactive means weaker than that.
experiment: qHTS Assay for Spectroscopic Profiling in A350 Spectral Region; conditions: Compound autofluorescence, 340/450 nm, Alexa 350 dye-equivalents; stronger effect = higher value

SMILES	max dye-equivalent concentration
COc1ccccc1OC[C@H](O)CN1CCN(CC(=O)Nc2c(C)cccc2C)CC1	inconclusive: 3.5 nM
CCOc1ccc2nc(NCCNC(=O)C3CC3)c(C)cc2c1	active: 350 nM
CCC(C)n1c(C)nc2c(c1=O)c1nc3ccccc3nc1n2-c1ccc2c(c1)OCCO2 (configuration not stated)	active: 27 nM
Cc1cc(=O)oc2cc(OCC(O)CN3CCN(c4ccc(F)cc4)CC3)ccc12 (configuration not stated)	inconclusive: 1.7 nM
O=C(c1cc(C(F)(F)F)cc(C(F)(F)F)c1)N1CCC[C@@]2(CCN(c3ccncc3)C2)C1	inactive
COc1cccc(OCC(O)CO)c1 (configuration not stated)	inactive
O=C(Oc1cccc(NC(=O)c2ccco2)c1)c1cccc(S(=O)(=O)N2CCCC2)c1	inconclusive: 2.2 nM
O=C(O)CSCc1cccc2ccccc12	inactive
COc1cc2c(cc1OC)CN(C(=O)CSc1nc(N)c(C#N)cc1C#N)CC2	active: 22 nM
Cn1c(=O)c2[nH]c(CCCCC(=O)O)nc2n(C)c1=O	inactive
CC(=O)N1CCN(c2ccc(OC[C@@H]3CO[C@@](Cn4ccnc4)(c4ccc(Cl)cc4Cl)O3)cc2)CC1	inconclusive: 4.4 nM
CC1=C(C(=O)OCC2CCCO2)C(c2ccc(C)o2)C2=C(CC(c3ccc(F)cc3)CC2=O)N1 (configuration not stated)	active: 37 nM
CC1CCN(S(=O)(=O)c2cc(Cl)ccc2Br)CC1	active: 14 nM
O=C(CCc1nc2ccccc2c(=O)[nH]1)OCc1nnc(-c2ccccc2)o1	inconclusive: 4.3 nM
Cc1cccc2c(=O)cc(C)n(CC(=O)N3CCOCC3)c12	active: 7100 nM
COC(=O)c1c(NC(=O)c2ccc(Br)s2)sc2c1CCC2	active: 10 nM
CC(C#N)Sc1nc2ccccc2c(=O)n1-c1ccccc1 (configuration not stated)	inconclusive: 1.4 nM
COC(=O)N1CCC2(CC1)CCN(c1ccccc1)CC2	inactive
Cc1cc(NC(=O)CSc2nnc(COc3ccccc3)n2Cc2ccco2)no1	inconclusive: 2.1 nM
COC(=O)c1ccccc1CCC(C)=O	inactive
COC(=O)c1ccccc1NC(=O)c1cnc2sccn2c1=O	inconclusive: 4 nM
CCOC(=O)c1nnn(-c2nonc2N)c1CN1CCc2ccccc2C1	inactive
Cc1ccc2[nH]c(=O)c(CN(CCO)C(=O)NCc3ccccc3)cc2c1	inconclusive: 1.6 nM
CCN(CC)CCNc1nc(-c2ccco2)c2c(c1C#N)CC(C)(C)OC2	active: 590 nM

Given bar-delimited: entries from further up.
SMILES | max dye-equivalent concentration
COc1cccc(OCC(O)CO)c1 (configuration not stated) | inactive
O=C(O)CSCc1cccc2ccccc12 | inactive
CC1CCN(S(=O)(=O)c2cc(Cl)ccc2Br)CC1 | active: 14 nM
COC(=O)c1ccccc1NC(=O)c1cnc2sccn2c1=O | inconclusive: 4 nM

The list continues:

SMILES	max dye-equivalent concentration
Cc1ccc(-c2nc3nc4ccccc4nc3n2Cc2ccco2)cc1	active: 550 nM
O=C(Cn1cnc2c(nnn2Cc2ccc(Cl)cc2)c1=O)NC1CCCC1	inactive
Cc1cc(NC(=O)C23CCC(C)(c4nc5cc(Cl)c(Cl)cc5nc42)C3(C)C)no1 (configuration not stated)	inconclusive: 1.1 nM
CCCC(=O)Nc1cc(C)c(NC(=O)c2ccccn2)cn1	inconclusive: 3.5 nM
CCOC(=O)C1=C(C)NC(C)=C(C(=O)OCC)C1c1cc2ccc(C)cc2[nH]c1=O	active: 11 nM
Cc1cc(N2CCN(c3ccccc3)CC2)nc(NCc2ccccc2)n1	inconclusive: 5.5 nM
COc1cccc(Cn2c(=O)c(CCc3ccccc3)nc3cnc(N4CCN(C)CC4)nc32)c1	inconclusive: 2.8 nM
Cc1cc(C)nc(Sc2nc(C)nc3c2oc2ccccc23)n1	inconclusive: 1.2 nM
Nc1ccc2oc(-c3cccc4ccccc34)nc2c1	inconclusive: 3.9 nM
CC12CC(c3ccccc3O1)C(C(=O)NCc1ccccc1)C(=O)N2 (configuration not stated)	inconclusive: 1.2 nM
Brc1ccc(-c2nn3c(Cc4ccccc4)nnc3s2)o1	inconclusive: 2.3 nM
C=CCn1c(SCn2nnc3ccccc3c2=O)nnc1-c1ccc(Cl)cc1	inactive
CCc1cc2c(NCCN3CCCCC3)ncnc2s1	active: 14 nM
CC(=O)c1cc2c(cc1NC(=O)CCCC(=O)O)OCO2	active: 19 nM
Cn1c(=O)c(-c2ccccc2)nc2cnc(Nc3ccccc3)nc21	inconclusive: 4.1 nM
COC(=O)c1[nH]c2cc(OC)ccc2c1NC(=O)CN1CCN(c2cccc(C)c2)C(C)C1 (configuration not stated)	inactive
Cc1csc(SCC(=O)Nc2cccc3nsnc23)n1	inconclusive: 5 nM
CCOc1ccc(C2C(C#N)=C(N)SC(N)=C2C#N)c(OCC)c1	inactive
CCOC(=O)c1cc(C#N)c(NCc2ccccc2)nc1C	inconclusive: 1.2 nM
CC(=O)c1cc2c(cc1NC(=O)C1CC=CCC1C(=O)O)OCO2 (configuration not stated)	active: 37 nM
Cc1cccc(CNc2cc(-c3cccc(C#N)c3)ncn2)c1	inactive
COC(=O)C1CCN(c2nc3ccccc3nc2C(C#N)C(=O)NCCc2ccccc2)CC1 (configuration not stated)	inconclusive: 4.2 nM
CCOC(=O)c1c(NC(=O)CSc2nnc(-c3ccccc3)n2CC)sc(C(C)=O)c1C	inactive

Reference: PubChem BioAssay AID590 (National Center for Advancing Translational Sciences (NCATS), 2007)
